Laboratory results from PMC12920906.
No constants are given. Whether binding was seen depends on the method and setting. In cells and extracts the contact can be indirect. Some binding calls cover weakened binding; strength is not graded here.

Target: T1, MRE11 (UniProt P49959)
T1 sequence: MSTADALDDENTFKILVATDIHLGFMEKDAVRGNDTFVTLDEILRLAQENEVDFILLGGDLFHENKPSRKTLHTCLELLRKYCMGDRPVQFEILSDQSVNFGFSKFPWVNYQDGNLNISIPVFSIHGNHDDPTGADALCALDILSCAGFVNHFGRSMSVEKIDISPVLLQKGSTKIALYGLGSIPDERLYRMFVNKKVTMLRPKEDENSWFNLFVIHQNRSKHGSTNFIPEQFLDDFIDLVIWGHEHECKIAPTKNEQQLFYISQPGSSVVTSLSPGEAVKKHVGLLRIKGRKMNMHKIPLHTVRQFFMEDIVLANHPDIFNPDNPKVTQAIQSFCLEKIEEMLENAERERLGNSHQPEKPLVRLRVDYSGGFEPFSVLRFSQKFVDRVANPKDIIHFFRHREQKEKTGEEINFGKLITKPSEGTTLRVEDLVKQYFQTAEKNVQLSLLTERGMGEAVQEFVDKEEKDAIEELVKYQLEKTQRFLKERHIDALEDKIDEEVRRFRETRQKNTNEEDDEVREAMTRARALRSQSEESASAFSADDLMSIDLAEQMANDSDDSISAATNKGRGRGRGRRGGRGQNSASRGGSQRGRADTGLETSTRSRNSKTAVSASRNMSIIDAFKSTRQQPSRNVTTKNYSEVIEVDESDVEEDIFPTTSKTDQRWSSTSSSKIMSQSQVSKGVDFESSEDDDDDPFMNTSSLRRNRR
Assay: co-IP; Polk immunoprecipitated and blotted for MRE11, and the reverse co-IP (MRE11 immunoprecipitated, blotted for Polk); cells not named in the main text

binding: binds
B1: DNA polymerase kappa (protein, UniProt Q9UBT6 1-870)
chain: MDSTKEKCDSYKDDLLLRMGLNDNKAGMEGLDKEKINKIIMEATKGSRFYGNELKKEKQVNQRIENMMQQKAQITSQQLRKAQLQVDRFAMELEQSRNLSNTIVHIDMDAFYAAVEMRDNPELKDKPIAVGSMSMLSTSNYHARRFGVRAAMPGFIAKRLCPQLIIVPPNFDKYRAVSKEVKEILADYDPNFMAMSLDEAYLNITKHLEERQNWPEDKRRYFIKMGSSVENDNPGKEVNKLSEHERSISPLLFEESPSDVQPPGDPFQVNFEEQNNPQILQNSVVFGTSAQEVVKEIRFRIEQKTTLTASAGIAPNTMLAKVCSDKNKPNGQYQILPNRQAVMDFIKDLPIRKVSGIGKVTEKMLKALGIITCTELYQQRALLSLLFSETSWHYFLHISLGLGSTHLTRDGERKSMSVERTFSEINKAEEQYSLCQELCSELAQDLQKERLKGRTVTIKLKNVNFEVKTRASTVSSVVSTAEEIFAIAKELLKTEIDADFPHPLRLRLMGVRISSFPNEEDRKHQQRSIIGFLQAGNQALSATECTLEKTDKDKFVKPLEMSHKKSFFDKKRSERKWSHQDTFKCEAVNKQSFQTSQPFQVLKKKMNENLEISENSDDCQILTCPVCFRAQGCISLEALNKHVDECLDGPSISENFKMFSCSHVSATKVNKKENVPASSLCEKQDYEAHPKIKEISSVDCIALVDTIDNSSKAESIDALSNKHSKEECSSLPSKSFNIEHCHQNSSSTVSLENEDVGSFRQEYRQPYLCEVKTGQALVCPVCNVEQKTSDLTLFNVHVDVCLNKSFIQELRKDKFNPVNQPKESSRSTGSSSGVQKAVTRTKRPGLMTKYSTSKKIKPNNPKHTLDIFFK
